The series in a line: general procedure: Fmoc solid-phase peptide synthesis. Particulars: whole synthesis; for final HPLC purity: all wavelengths.

Some peptides are written in HELM: one residue between dots, names in brackets for other building blocks, links after the first $.

Regarding PEPTIDE1{[DIT].W.[DIT].K.G.K.L}$$$$V2.0, the isolated yield amounted to 20% and the “final HPLC purity” value is at least 97%.
In the same order, the values of PEPTIDE1{[DIT].W.[DIT].R.G.R.L}$$$$V2.0 are 1% and at least 96%.
On to “PEPTIDE1{K.[DIT].W.[DIT].K.G.K.L}$$$$V2.0”, for which the isolated yield is on record as 5% and the “final HPLC purity” value is on record as at least 99%.
As to “PEPTIDE1{[DIT].[AEEA].W.Y.K.G.K.L}$$$$V2.0”, the isolated yield came out at 26% and the “final HPLC purity” value is at least 98%.
On the same counts, the results for “PEPTIDE1{K.[DIT].K.W.[DIT].K.G.K.L}$$$$V2.0” are 4% and at least 96%.
Consider PEPTIDE1{W.[DIT].R.G.R.L}$$$$V2.0, for which the isolated yield is given as 4% and the “final HPLC purity” value was at least 98%.
Take “PEPTIDE1{W.[DIT].K.G.K.L.[AEEA].[DIT].G}$$$$V2.0”: the isolated yield is reported as 4% and the “final HPLC purity” value is recorded as at least 99%.
In the case of “PEPTIDE1{K.[DIT].K.[DIT].[AEEA].W.Y.K.G.K.L}$$$$V2.0”, the isolated yield is recorded as 3% and the “final HPLC purity” value is at least 99%.
On the same counts, the results for PEPTIDE1{[DIT].W.G.K.K.L}$$$$V2.0 are 19% and at least 98%.
In the same order, the values of “PEPTIDE1{W.Y.K.G.K.L.[AEEA].[DIT].G}$$$$V2.0” are 18% and at least 99%.
On the same counts, the results for “PEPTIDE1{[DIT].[DIT].[AEEA].W.Y.K.G.K.L}$$$$V2.0” are 5% and at least 99%.
Turning to “PEPTIDE1{K.[DIT].K.[DIT].W.[DIT].K.G.K.L}$$$$V2.0”, the isolated yield came to 10% and the “final HPLC purity” value is at least 97%.
In the same order, the values of PEPTIDE1{W.[DIT].K.G.K.L}$$$$V2.0 are 19% and at least 99%.

These data come from article PMC9089912 (PLoS ONE, 2022).
